# In PubChem BioAssay AID504467 (National Center for Advancing Translational Sciences (NCATS), 2011):
# About 7,700 (2.3%) of roughly 330,000 compounds were called active. The inconclusive results got no clear call from the source; some entries with a clear call stand among them for comparison. The call rests on the fitted dose curve; in most records, active means well fitted inhibition curve with a large enough effect; inconclusive means small, poorly fitted or top-dose-only effect, or effect the other way; inactive means flat fitted curve, though single readings scatter. A potency beside an inconclusive call is a rough fit, not a confirmed value.
# Assay: qHTS screen for small molecules that inhibit ELG1-dependent DNA repair in human embryonic kidney (HEK293T) cells expressing luciferase-tagged ELG1; further: nearly all actives have a fitted effect of over 55% in size
# Settings: HEK293T ELG1-luciferase reporter, luminescence, 16 h, DNA damage induced by 5-fluorouridine; activity change, negative = inhibition: at 46.1 µM (top of the series)
# Procedure, shortened: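 Quantitative HTS, concentration-response format. 2,000 cells/well co-treated with 5-fluorouridine and compound, 16 hr in 5% CO2 at 37 °C; ONE-Glo luminescence read after 30 min.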
# On the % scale 0 is the no-effect control and ±100 the full control effect; potency means the concentration at half of the fitted maximal effect.
Structure (SMILES),Potency,"activity change, negative = inhibition"
Cc1cc(C2=CC(C)(c3cc(C)oc3C)Nc3nc(C(F)(F)F)nn32)c(C)o1 (centres undefined),"inconclusive: 23.1 µM [inhibitor, single point]",–
O=C(CN1C(=O)S/C(=C\C=C\c2ccccc2)C1=O)Nc1ccc(C(=O)O)cc1,–,inactive: 0.868%
CC(C)N(C(=O)COC(=O)c1cccc(N(C)C)c1)c1ccccc1,–,inactive: 1.91%
COc1ccc(C2C(C#N)=C(N)Oc3n[nH]c(C)c32)cc1CN1CCN(c2ccc(F)cc2)CC1 (centres undefined),"inconclusive: 1.16 µM [inhibitor, single point]",–
CCN(CC)CCN(C(=O)c1ccc(Br)s1)c1nc2cc3c(cc2s1)OCCO3,–,inactive: 16.8%
CCS(=O)(=O)n1nc(-c2ccccc2)nc1SCc1ccccc1,"inconclusive: 8.2 µM [activator, partial curve]",–
c1ccc(-c2nc(-n3ccnc3)nc(-n3ccnc3)n2)cc1,"inconclusive: 10.3 µM [inhibitor, partial curve]",–
O=C(NCCc1ccc(F)cc1)C(=O)NCC1CCCN1S(=O)(=O)c1cccs1 (centres undefined),"inconclusive: 4.61 µM [inhibitor, single point]",–
CCn1cc(C2=NC(C)CO2)c2ccccc21 (centres undefined),"inconclusive: 23.1 µM [activator, partial curve, poor fit]",–
O=S(=O)(O)c1cc(O)c2c(O)c(N=Nc3cc(Cl)ccc3O)c(S(=O)(=O)O)cc2c1,"inconclusive: 25.9 µM [inhibitor, partial curve, poor fit]",–
Cc1ccc(Cn2ccc(NC(=O)c3nn(C)cc3Cl)n2)cc1,"inconclusive: 14.6 µM [activator, partial curve]",–
Clc1ccc2nc(CSc3nc4ccccc4o3)cn2c1,"inconclusive: 2.59 µM [activator, full curve]",–
Cc1cccc([C@@H]2C[C@H]3CN(Cc4cccc(Cl)c4)C(=O)[C@]34CCCN24)n1,–,inactive: 3.89%
COc1ccc(CN(C(=O)c2nsc(Cl)c2Cl)C(C(=O)NC2CCCC2)c2ccc(C)cc2)cc1 (centres undefined),"inconclusive: 29.1 µM [inhibitor, single point]",–
CCOC(=O)CCc1c(C(=O)OCC)[nH]c(CC)c1C(=O)OCc1ccccc1,"inconclusive: 29.1 µM [inhibitor, single point]",–
COc1ccc(-c2c(=O)n(OCc3ccccn3)c3ccccc3[n+]2[O-])cc1OC,active: 13 µM,–
O=C(Cc1cccc2ccccc12)OCn1nnc2ccccc2c1=O,–,inactive: 18.4%
COc1ccc(-n2cc(-c3ccccc3)[n+]3c2CCCCC3)cc1,"inconclusive: 2.31 µM [inhibitor, full curve]",–
COc1cc(C(=O)O/N=C2\CCCc3c2ccc(OC)c3[N+](=O)[O-])cc(OC)c1OC,–,inactive: 11.4%
O=C(OCC(=O)c1ccc[nH]1)C1=COCCO1,"inconclusive: 13 µM [activator, partial curve]",–
CC(=O)NC(=S)NNC(=O)C(c1ccccc1)c1ccccc1,"inconclusive: 18.3 µM [inhibitor, single point]",–
CC1(C)CC(=O)C(C=Nc2ccc(O)cc2)=C(O)C1,"inconclusive: 29.1 µM [activator, partial curve, poor fit]",–

Structure (SMILES),Potency,"activity change, negative = inhibition"
Cc1ccc(S(=O)(=O)N2CCCCC2CCNC(=O)C(=O)Nc2ccccc2F)cc1 (centres undefined),–,inactive: -23.6%
COc1ccc(CN(C)C(C)C(=O)Nc2cccc3ccccc23)cc1 (centres undefined),"inconclusive: 25.9 µM [inhibitor, single point]",–
COc1ccccc1NC(=S)NCCSc1ccc(C)cc1,"inconclusive: 16.4 µM [activator, partial curve, poor fit]",–
Cc1cc(-c2ccccc2)nc2[n+]1CCN2C,"inconclusive: 20.6 µM [inhibitor, partial curve]",–
CC1(C)ON(C2CCCCC2)[C@H]2c3nc4ccccc4n3C[C@H]21,–,inactive: -3.88%
O=[N+]([O-])c1ccc(C(O)CN=Cc2ccc(O)cc2O)cc1 (centres undefined),"inconclusive: 14.6 µM [inhibitor, partial curve]",–
CCN1CCN(CC(=O)Nc2cccc(C)c2C)C(=O)C1=O,–,inactive: 6.34%
CC(=O)Cn1cnc2sc(-c3ccccc3)cc2c1=O,"inconclusive: 8.2 µM [activator, partial curve]",–
CCOC(=O)CN(C)C(=O)CCc1nnc(-c2ccc(-c3ccccc3)cc2)o1,"inconclusive: 16.4 µM [activator, single point]",–
CCOC(=O)c1c(NC(=O)CSc2nc3ccccc3[nH]2)sc2c1CC(C)(C)NC2(C)C,"inconclusive: 25.9 µM [inhibitor, single point]",–
O=[N+]([O-])c1cc(S(=O)(=O)N2CCCC2)ccc1NN=C1CCCCC1,–,inactive: 2.87%
Cc1cccc(-c2nnc(SCc3nc4ccccc4[nH]3)n2Cc2ccco2)c1,"inconclusive: 16.4 µM [inhibitor, single point]",–
CN1C2C=C3C(C#N)=C(N)C(C#N)(C#N)C(c4ccc(Br)cc4)C3C1CC2 (centres undefined),–,inactive: 0.24%
CCN1CCN(C(=O)C2CCCN(c3ncnc4c3nc3n4CCCCC3)C2)CC1 (centres undefined),"inconclusive: 5.17 µM [inhibitor, full curve]",–
COc1ccc(NC(=O)C#Cc2ccccc2)cc1,"inconclusive: 0.447 µM [activator, partial curve, poor fit]",–
Cc1cc(C)cc(C(=O)Nc2ccc(N3CCCC3)cc2)c1,"inconclusive: 2.31 µM [activator, full curve]",–
Cc1nc(C)c(C(=O)Nc2cccc(F)c2)s1,"inconclusive: 29.1 µM [activator, single point]",–
CC(CCc1ccccc1)NC(=O)c1ccc(Br)o1 (centres undefined),"inconclusive: 1.16 µM [activator, single point]",–
Cc1cccc(NCC(=O)NNC(=S)Nc2ccccc2)c1,–,inactive: 9.96%
CCN(CC)S(=O)(=O)c1cc(NC(=O)CSc2nc3c(cc2C#N)C(=O)CC(C)(C)C3)ccc1C,active: 20.6 µM,–
C=CCn1c(NC(=O)c2ccccc2Cl)c(C#N)c2nc3ccccc3nc21,"inconclusive: 25.9 µM [inhibitor, partial curve, poor fit]",–
Cc1ccnc(NC(=O)COc2ccc3c(c2)CCC3)c1,"inconclusive: 1 µM [activator, partial curve, poor fit]",–

# A draw from above in order of molar mass, largest number first.
Structure (SMILES),Potency,"activity change, negative = inhibition"
CCOC(=O)c1c(NC(=O)CSc2nc3ccccc3[nH]2)sc2c1CC(C)(C)NC2(C)C,"inconclusive: 25.9 µM [inhibitor, single point]",–
COc1ccc(-c2c(=O)n(OCc3ccccn3)c3ccccc3[n+]2[O-])cc1OC,active: 13 µM,–
O=[N+]([O-])c1cc(S(=O)(=O)N2CCCC2)ccc1NN=C1CCCCC1,–,inactive: 2.87%
